The list shows a part of the results.
Each sequence was assayed against OsWRKY34 (Oryza sativa, UniProt Q0JBA9 1-250) (assay: protein-binding microarray (RPBM); PBS, 2% BSA, 51.3 ng/ul salmon testes DNA, 50 uM zinc acetate, 200 nM TF, 25 C, 1 h; high values mean tight binding). Settings: protein: recombinant; tags: N-terminal polyhistidine and DsRed monomer fusion (pET32a); label: CyDye5-dUTP incorporated in the synthesized complementary strand; 3' TTTTT single-stranded linker to array surface; dsDNA, one strand shown.
Method in brief: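 Using Ni–NTA, transcription factors fused N-terminally to polyhistidine and DsRed were purified after expression in E. coli BL21-CodonPlus. These were incubated at 200 nM with a blocked, double-stranded custom Agilent array for 1 h at 25 °C in a buffer containing 50 µM zinc acetate, and the array was washed. The binding signal is per-feature fluorescence intensity (arbitrary units) on an Axon 4000B scanner.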

By UniProt entry, the sequences of proteins in these tests, tags left out.
UniProt Q0JBA9, entry or part of it: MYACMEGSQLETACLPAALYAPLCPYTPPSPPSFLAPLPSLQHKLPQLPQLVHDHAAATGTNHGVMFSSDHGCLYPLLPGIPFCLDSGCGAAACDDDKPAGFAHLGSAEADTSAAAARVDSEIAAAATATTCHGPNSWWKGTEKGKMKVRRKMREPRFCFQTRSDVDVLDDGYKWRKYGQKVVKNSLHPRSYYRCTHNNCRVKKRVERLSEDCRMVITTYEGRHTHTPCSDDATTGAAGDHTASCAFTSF

Sequence | binding signal
AACTAACATTACTATAATACAACCAATATATTTCCGTGCACGGAGTCACCTAGTGCAG | 8160 fluorescence intensity (a.u.)
AAGTCTAATTTATCTCCCTGTTGCTACAGTAGCTTCTTCACGGAGTCACCTAGTGCAG | 8880 fluorescence intensity (a.u.)
ACTCCACCTCCAATCGAACCCCACCCGCCGCCGCCGCCGGCGGAGTCACCTAGTGCAG | 10100 fluorescence intensity (a.u.)
TACCATATCAATTTCTTCTACTCGTGTGCAGTGGGATAATCGGAGTCACCTAGTGCAG | 8920 fluorescence intensity (a.u.)
GGGTAAGTAGTTTAATTCTTTAGTTTAGTGCACCAAGTGACGGAGTCACCTAGTGCAG | 8940 fluorescence intensity (a.u.)
TATCCCATTCTTTTTGTGTGCATTTTTCTTTCAGATCAATCGGAGTCACCTAGTGCAG | 13100 fluorescence intensity (a.u.)
AGTTTTTCAGGCTTCTGAACTTGCTCAGCTAGCCACTCTGCGGAGTCACCTAGTGCAG | 8520 fluorescence intensity (a.u.)
AAGTTATTGATGGTCAAAGTTATAAAAGTTTGACCTCAACCGGAGTCACCTAGTGCAG | 8840 fluorescence intensity (a.u.)
GGAGACAGATTATACCTGGTTTTGTGGCTGAGGGATACAACGGAGTCACCTAGTGCAG | 9420 fluorescence intensity (a.u.)
CTACACTTTCACACGAGTCTAGTCAAACACATATTGACCACGGAGTCACCTAGTGCAG | 10600 fluorescence intensity (a.u.)
AATTGGCTGGATATCCTGTTCTTCATGTAATCATGTCATGCGGAGTCACCTAGTGCAG | 8600 fluorescence intensity (a.u.)
GTAACTTCGGAACAATTGATTGTACTGTAGGGGTGGGATTCGGAGTCACCTAGTGCAG | 9250 fluorescence intensity (a.u.)
ACTGACCACAGCTCCAAAATTTCACTCTAAGCCTTACTACCGGAGTCACCTAGTGCAG | 10400 fluorescence intensity (a.u.)
CTGCTTTTTTATCTAACGTTTCACCATTCTTTTTCAAAAACGGAGTCACCTAGTGCAG | 11600 fluorescence intensity (a.u.)
TTTAGTAGCAATCGACGTCTTCCCATCCAACAAATTGCCTCGGAGTCACCTAGTGCAG | 8680 fluorescence intensity (a.u.)
TTTTTCTACGCATCTAGCCCTCTACATGTGTTTATATATTCGGAGTCACCTAGTGCAG | 8640 fluorescence intensity (a.u.)
CTCTCTCCGTCCTTAAGAAAAATGTCACATTCGTTTTACTCGGAGTCACCTAGTGCAG | 9240 fluorescence intensity (a.u.)
CCCCGCCGCCGCCGCCTCTCCAGCCATCGCCACCGCGCAACGGAGTCACCTAGTGCAG | 10200 fluorescence intensity (a.u.)
GTCCTTCTTGCAACCAACAGTCTGGCAAGGCCGTTACGTCCGGAGTCACCTAGTGCAG | 9230 fluorescence intensity (a.u.)
CAGACAGTGCTTCTTCCACATACATACGGCAGTCGTTGACCGGAGTCACCTAGTGCAG | 14100 fluorescence intensity (a.u.)
CCTCTTTCCATATTGCTTTTGGACTCTCCTTTCCTTTTCTCGGAGTCACCTAGTGCAG | 11000 fluorescence intensity (a.u.)

Sequence | binding signal
GATCCACGCCTCTCCCGCTCAAATCTCGGGGCGGGCCACCCGGAGTCACCTAGTGCAG | 10100 fluorescence intensity (a.u.)
CTGGTTTTTTTTCCACATTTAATACTCCATGCATGTATTTCGGAGTCACCTAGTGCAG | 8550 fluorescence intensity (a.u.)
AAATAAGAGTGACCGTTCTCGCATTCACTCCATCGCACCACGGAGTCACCTAGTGCAG | 9150 fluorescence intensity (a.u.)
AACACCGCCGCCGCTTGGCCATCTCCCCTGCCGACGACACCGGAGTCACCTAGTGCAG | 8950 fluorescence intensity (a.u.)
ACGTGCTGCGACCAATCAGCGGCTGCCAACTCAGCCGGCCCGGAGTCACCTAGTGCAG | 8390 fluorescence intensity (a.u.)
TCCTTTAATTCAAAGAGATCCTATACTTTCTTCATTCTAGCGGAGTCACCTAGTGCAG | 8260 fluorescence intensity (a.u.)
AAGGATATAAGGGTGGTTGAGGGGTAGAATAGGAAGAAATCGGAGTCACCTAGTGCAG | 9360 fluorescence intensity (a.u.)
ATTTTCTGTTTTGGTATTATTTTACGTTTGCCTGCATCTTCGGAGTCACCTAGTGCAG | 9660 fluorescence intensity (a.u.)
CGTTTCTATTTCCGCGGCCGCCTCCAACCACCCGCGAGGCCGGAGTCACCTAGTGCAG | 8260 fluorescence intensity (a.u.)
CGAGTGACGAGGTCTTGGGTTGGGGTAGGGGTGGGATGAGCGGAGTCACCTAGTGCAG | 19900 fluorescence intensity (a.u.)
GGGTATTAGTGGCGTGATTAATTTGGCGGGAGCAGCGATGCGGAGTCACCTAGTGCAG | 11700 fluorescence intensity (a.u.)
GTATCAGCACACAACACAACTGTAGTCCTGGAGCATTCTCCGGAGTCACCTAGTGCAG | 10200 fluorescence intensity (a.u.)
CCGATCGGTGGGGAGGGCTCTCTCTCTCTCTCTCTCTCTCCGGAGTCACCTAGTGCAG | 9170 fluorescence intensity (a.u.)
ATTTACAGTGTCATCTTTACTTATACACATCAAGAACAAACGGAGTCACCTAGTGCAG | 8640 fluorescence intensity (a.u.)
GCGGGGTTGATTTCTGACTGAGATTTTGTTTTTCTTTTCTCGGAGTCACCTAGTGCAG | 14000 fluorescence intensity (a.u.)
ATTGATTGTGTACGTTTTGCCCTTAATCCTTGTCAGCAGTCGGAGTCACCTAGTGCAG | 10200 fluorescence intensity (a.u.)
CTCTTGTTGGATGCCAGGTTTGTTCTCCATTTTTGCAATTCGGAGTCACCTAGTGCAG | 12000 fluorescence intensity (a.u.)
TGCTTCTCTCTTTTTACCATTGTTTTAACCCTTTTTTTTACGGAGTCACCTAGTGCAG | 8750 fluorescence intensity (a.u.)
CAGAGATGTAACATTTTTTTCAGTTGTTTCGCGTGTTCTTCGGAGTCACCTAGTGCAG | 8480 fluorescence intensity (a.u.)
GCTTTGTCCTAATGTTTTCCACTGCCTAAGTAACGGATCACGGAGTCACCTAGTGCAG | 8490 fluorescence intensity (a.u.)
GGTTGAGTATTTGTCATGGTTTGTGGATGCATGGATGGTTCGGAGTCACCTAGTGCAG | 10000 fluorescence intensity (a.u.)

Random excerpt: two records from the list
Sequence | binding signal
CTGGTTTTTTTTCCACATTTAATACTCCATGCATGTATTTCGGAGTCACCTAGTGCAG | 8550 fluorescence intensity (a.u.)
AAGGATATAAGGGTGGTTGAGGGGTAGAATAGGAAGAAATCGGAGTCACCTAGTGCAG | 9360 fluorescence intensity (a.u.)

Remaining list, next part

Sequence | binding signal
CTTCTTTCTCAATATGTGATTTTCTTTCCTTAATCTCGTTCGGAGTCACCTAGTGCAG | 8680 fluorescence intensity (a.u.)
GCACGGAGTACTTCCCATTCACCCCTTTCGCCCTCTCGCACGGAGTCACCTAGTGCAG | 8390 fluorescence intensity (a.u.)
CCTTCCTCGCCTCGCCTCGGCTCTCACACGACGCCTCTTCCGGAGTCACCTAGTGCAG | 9500 fluorescence intensity (a.u.)
GACACCACAGAAGCAGAGGCCATCACGCATCACTTTCTTCCGGAGTCACCTAGTGCAG | 8290 fluorescence intensity (a.u.)
CCACCGCTTCCATTCTTCTCGCCTTTTTCTTCCACCGTTGCGGAGTCACCTAGTGCAG | 9290 fluorescence intensity (a.u.)
CTCCCCACTGGCCGCCCTACATTCAGAGGTAGAGAAGAGTCGGAGTCACCTAGTGCAG | 8290 fluorescence intensity (a.u.)
TCTTCCATTGGCTGGGGCGTCGGAGTCGGCTGACTCTTCCCGGAGTCACCTAGTGCAG | 9680 fluorescence intensity (a.u.)
CTAATATTCCTTATTTTTAATTCCGAATTTCAGTTATTTCCGGAGTCACCTAGTGCAG | 8490 fluorescence intensity (a.u.)
TTTCACAATGTAAGTCATTTTAGCATTTCCTACATTTATACGGAGTCACCTAGTGCAG | 9300 fluorescence intensity (a.u.)
TATATGATGGTTGTGCACTACTAGCTTTGCAAGGGAGGGGCGGAGTCACCTAGTGCAG | 9390 fluorescence intensity (a.u.)
ACTTTTTTTATGTAATGTTTGACCACTCATCTTATTAGAACGGAGTCACCTAGTGCAG | 10800 fluorescence intensity (a.u.)
CAAGCTCATATCTCGCATGGAATTTTTTGTTTTTCTGCATCGGAGTCACCTAGTGCAG | 8820 fluorescence intensity (a.u.)
GTTCCTTTCATTTTTTCTCCTCTTACTCTCTCTCTTCTCACGGAGTCACCTAGTGCAG | 8950 fluorescence intensity (a.u.)
GTCTTTTGGTGGGTGGGAAATCACTTCCATTTCCCATTAGCGGAGTCACCTAGTGCAG | 11300 fluorescence intensity (a.u.)
TGACTACAACCGCGTTTTCATTGTTTTTTTTTTTTTGACCCGGAGTCACCTAGTGCAG | 8750 fluorescence intensity (a.u.)
GTAATTTCCATGGTCACAGTCACAGCGGACTCTGTTTCGACGGAGTCACCTAGTGCAG | 8930 fluorescence intensity (a.u.)
TGGATTGTGTTGAGCTGGAAACTGCTAGCTGGTTAATACACGGAGTCACCTAGTGCAG | 8330 fluorescence intensity (a.u.)
ATTTGTTCACTCGTTGACTGGCTTTGGCGCTTTATTTATGCGGAGTCACCTAGTGCAG | 12000 fluorescence intensity (a.u.)
TCCGCCTCCCCTCGCGCCGCCGCCGCCGCCGCGTTGACCTCGGAGTCACCTAGTGCAG | 11400 fluorescence intensity (a.u.)
GAATAATCTATTTACACTTGTACTTTGAATATTTTTTTGTCGGAGTCACCTAGTGCAG | 8240 fluorescence intensity (a.u.)
GGTCAAACATTAGACAAAAAGTCAACGACGTCATGCATTACGGAGTCACCTAGTGCAG | 15000 fluorescence intensity (a.u.)

Sequence | binding signal
CTACTGTGTCCTTTTCGTTGGCAACCATGGTTTCATTTTTCGGAGTCACCTAGTGCAG | 9780 fluorescence intensity (a.u.)
TGGTCTCGTCTCCTCGTCTTCTCGCCGCCGCCGCGAGCGGCGGAGTCACCTAGTGCAG | 11300 fluorescence intensity (a.u.)
CCCGCCTCGCCGCGCGCCGATGTTGCCGTCTCCCTGCGCGCGGAGTCACCTAGTGCAG | 8100 fluorescence intensity (a.u.)
GCAGCACAATGTCCATCGCATCGCTCGTCCTCCTGCGGTCCGGAGTCACCTAGTGCAG | 9700 fluorescence intensity (a.u.)
CCTACTACTACTACAGCATCATCTACTACACACATGACACCGGAGTCACCTAGTGCAG | 8490 fluorescence intensity (a.u.)
GCTATTTTTTCTCAGAATCTACATTATTGTATTTGTATTTCGGAGTCACCTAGTGCAG | 9460 fluorescence intensity (a.u.)
AAATGGGGTGCTTTGTGTAAGTAGGTCCGCTTGTCTTGAACGGAGTCACCTAGTGCAG | 8660 fluorescence intensity (a.u.)
TTCAGTTTTCACTTCATTATTTTGCCGTTTCTCTTTGACCCGGAGTCACCTAGTGCAG | 12300 fluorescence intensity (a.u.)
AGGCTACACTATTAAACTTGCTCTTCTCAAGCTACTTCAACGGAGTCACCTAGTGCAG | 8190 fluorescence intensity (a.u.)
CTTTTATCTTTTTCCGCTGCATTTGTAATCTTTTATATTTCGGAGTCACCTAGTGCAG | 13400 fluorescence intensity (a.u.)
TCCTCTCCTCTCTTCTCTTCTCGACCTCCACTCCTCTCCACGGAGTCACCTAGTGCAG | 11700 fluorescence intensity (a.u.)
TGAGGGCTGCTGTGCTATTCTTCCTGGACATCTCTGGGTCCGGAGTCACCTAGTGCAG | 8650 fluorescence intensity (a.u.)
ACTTCAAATGTGTGTCCTTATATCCGAGGGGCGGGCCCACCGGAGTCACCTAGTGCAG | 9320 fluorescence intensity (a.u.)
TCTCCACATGCACCATCTTATCTCAACTCCTTAGAATTCCCGGAGTCACCTAGTGCAG | 8920 fluorescence intensity (a.u.)
CATCAATCGCTTTTGTTATTCCAGCGAGTTTTTGGGTTCTCGGAGTCACCTAGTGCAG | 11100 fluorescence intensity (a.u.)
GCACTCATCACTCATCAGAGCTCCACCAACCCACCACAAACGGAGTCACCTAGTGCAG | 11700 fluorescence intensity (a.u.)
TTAATCCATTCCACTTTACTCCAGCCAATCCTGGTTCCCGCGGAGTCACCTAGTGCAG | 8360 fluorescence intensity (a.u.)
TGTCCTATCCAGCCGCCCTATGTCAGCCACATGCCAGATGCGGAGTCACCTAGTGCAG | 8110 fluorescence intensity (a.u.)
TTTCTTTCAATATGGCATTAGTTGTCTTGCTGAGTTGGTTCGGAGTCACCTAGTGCAG | 8420 fluorescence intensity (a.u.)
GCCTCCACACACGCATACCTATGGCTGTCCCGGCCACAGCCGGAGTCACCTAGTGCAG | 10800 fluorescence intensity (a.u.)
TTCCAACAGTTGATATCGTGTTTTAAGGGTTCATCTTCTGCGGAGTCACCTAGTGCAG | 8390 fluorescence intensity (a.u.)

Reference: PMC7819943, “Rice protein-binding microarrays: a tool to detect cis-acting elements near promoter regions in rice”
